Source: the supplement of paper PMC12823440, “Inhibitors supercharge kinase turnover through native proteolytic circuits” (Nature, 2025)
Structures can show the parent of a compound that is named as a salt. The list shows a part of the results. Hit calls seldom repeat between salt and free forms of one compound.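 Kinases, fused to nanoluciferase, were expressed in K562 cells; luminescence was measured every 4 h from 2 to 18 h as percent of control (DMSO = 100%, positive control = 0%). A time point is decreased if signal falls significantly (2 sigma). Hits were called by the authors by a rule that is not shown; the count of time points alone does not decide it.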

Chains of the proteins cited; added tags and fusions are not shown. Lines headed by an entry give the natural chain unless they say otherwise; changes in a name come on top.
UniProt Q9UBF8: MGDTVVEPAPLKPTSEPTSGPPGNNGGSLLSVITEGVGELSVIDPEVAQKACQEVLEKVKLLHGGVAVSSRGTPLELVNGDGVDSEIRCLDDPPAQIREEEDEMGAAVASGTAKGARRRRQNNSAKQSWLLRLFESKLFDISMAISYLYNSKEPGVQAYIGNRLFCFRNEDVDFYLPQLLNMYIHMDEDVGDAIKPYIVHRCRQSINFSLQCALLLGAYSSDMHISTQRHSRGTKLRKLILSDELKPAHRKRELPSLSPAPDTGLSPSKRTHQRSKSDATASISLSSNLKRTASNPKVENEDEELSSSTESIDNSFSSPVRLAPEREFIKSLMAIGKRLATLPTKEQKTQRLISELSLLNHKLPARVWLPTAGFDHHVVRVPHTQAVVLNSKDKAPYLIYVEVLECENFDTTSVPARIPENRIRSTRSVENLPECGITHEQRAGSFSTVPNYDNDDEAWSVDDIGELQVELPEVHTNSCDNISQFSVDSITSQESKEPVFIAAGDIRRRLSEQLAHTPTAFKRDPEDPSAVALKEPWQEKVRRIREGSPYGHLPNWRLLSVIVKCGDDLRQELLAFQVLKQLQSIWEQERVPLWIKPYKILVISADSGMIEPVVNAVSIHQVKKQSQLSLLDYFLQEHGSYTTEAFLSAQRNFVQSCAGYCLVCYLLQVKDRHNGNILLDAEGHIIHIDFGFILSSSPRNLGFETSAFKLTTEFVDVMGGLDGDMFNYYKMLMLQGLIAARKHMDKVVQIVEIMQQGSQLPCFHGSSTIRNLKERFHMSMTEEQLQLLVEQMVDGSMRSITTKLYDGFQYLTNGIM

The compounds below were run against PIK4CB (UniProt Q9UBF8) (assay: kinase-Nluc reporter destabilization hit call (1 = scored as downregulated) (binary); higher = compound decreases kinase abundance). Conditions: K562; 2-18 h.

kinase-Nluc reporter destabilization hit call, inactive:
O=C1N[C@@H](Cc2c[nH]c3ccccc23)C(=O)N2CCC[C@@H]12 [Brevianamide F] (10 µM) 0, Cn1nccc1Nc1nccc(-c2ccn([C@H](CO)c3ccc(Cl)c(F)c3)c(=O)c2)n1 [Ravoxertinib] (10 µM) 0, O=C(NCCN1CCOCC1)c1cc2c(Oc3ccc(NC(=O)C4(C(=O)Nc5ccc(F)cc5)CC4)cc3)ccnc2[nH]1 [Tyrosine kinase inhibitor] (10 µM) 0, COc1cc2c(N3CCN(C(=O)Nc4ccc(OC(C)C)cc4)CC3)ncnc2cc1OCCCN1CCCCC1 [Tandutinib (hydrochloride)] (10 µM) 0, COc1cc(/C=C/C(=O)NCC(O)c2ccc(O)cc2)ccc1O (stereo unspecified) [N-Feruloyloctopamine] (2.5 µM) 0, COc1cc2nccc(Oc3ccc(NC(=O)NC4CC4)c(Cl)c3)c2cc1C(N)=O [Lenvatinib (mesylate)] (10 µM) 0, CN1CCN(c2cccc(Nc3nc4c(-c5ccc(S(C)(=O)=O)cc5)cccn4n3)c2)CC1 (10 µM) 0, C=C(CC[C@@H](C(=O)O)[C@H]1[C@H](O)C[C@@]2(C)C3=C(CC[C@]12C)[C@@]1(C)CC[C@H](OC(C)=O)C(C)(C)[C@@H]1CC3)C(C)C [Pachymic acid] (10 µM) 0, O=c1[nH]c(=O)n([C@@H]2O[C@H](CO)[C@@H](O)[C@@H]2O)cc1/C=C/Br [Sorivudine] (10 µM) 0, NC(=O)c1ccc(-c2nc(-c3ccc4c(c3)OCCO4)c(-c3ccccn3)[nH]2)cc1 (10 µM) 0, CC#CC(=O)Nc1ccc2ncnc(Nc3cccc(Br)c3)c2c1 (10 µM) 0, CCc1c(C(=O)NNC(=O)C(O)c2cc(F)cc(F)c2)ccc(O)c1C (stereo unspecified) (10 µM) 0, CC(=O)c1c(C)cc2cccc(O)c2c1O [Nepodin] (10 µM) 0, Cc1c(-c2c(F)cc(C(N)=O)c3[nH]c4c(c23)CC[C@H](C(C)(C)O)C4)cccc1-n1c(=O)c2cccc(F)c2n(C)c1=O (2.5 µM) 0, CCc1cc2c(cc1N1CCC(N3CCOCC3)CC1)C(C)(C)c1[nH]c3cc(C#N)ccc3c1C2=O [Alectinib] (10 µM) 0, FC(F)c1nc2ccccc2n1-c1nc(N2CCOCC2)nc(N2CCOCC2)n1 (2 µM) 0, FC(F)(c1ccc2ncccc2c1)c1nnc2ccc(-c3ccncc3)nn12 (10 µM) 0, Cn1cc(-c2cnn3c(N)c(Br)c([C@@H]4CCCNC4)nc23)cn1 (2.5 µM) 0, C[C@@H]1COCCN1c1cc(C2([S@@](C)(=N)=O)CC2)nc(-c2ccnc3[nH]ccc23)n1 [(S)-Ceralasertib] (10 µM) 0, CC#CC(=O)N1CC[C@@H](n2c(=O)n(-c3ccc(Oc4ccccc4)cc3)c3c(N)ncnc32)C1 [Tirabrutinib] (10 µM) 0, C[C@@]1(c2ncncc2F)NC(=O)c2cc(-c3cn[nH]c3)ccc21 (10 µM) 0, COc1ccc(Cl)c(Nc2nc3ccccc3nc2NS(=O)(=O)c2cccc(NC(=O)C(C)(C)N)c2)c1 [Pilaralisib] (10 µM) 0, O=Nc1c(-c2c(O)[nH]c3ccc(I)cc23)[nH]c2ccccc12 [5-Iodo-indirubin-3'-monoxime] (10 µM) 0, COc1cc2nccc(Oc3ccc(NC(=O)NC4CC4)c(Cl)c3)c2cc1C(N)=O [Lenvatinib] (10 µM) 0, C[C@]1(O)CCN(c2nc(N3C[C@H](O)[C@@H](O)C3)cc(C(F)(F)F)c2C#N)C1 (10 µM) 0, Cn1cnc(Cn2ccc3ccc(CNCc4[nH]c5ccccc5c4[C@H]4NC(=O)c5ccc(O)cc54)cc32)c1 (10 µM) 0
